Results published in the supplement of paper PMC10331698.
± gives the standard deviation of the averaged measurements. Most values lie at the level of the controls, where differences are scatter.

What was measured:
Assay in all cases: level (log10 ratio to DMSO vehicle control); higher = higher biomarker level / cell amount than vehicle control
[1] = compound: OCCC(F)(F)C(F)(F)C(F)(F)C(F)(F)C(F)(F)C(F)(F)C(F)(F)C(F)(F)F [8:2 Fluorotelomer alcohol]; conditions: 2200 nM; in DMSO
Experimental: (§1)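 BioMAP Diversity Plus panel of 12 human primary cell co-culture systems (3C, 4H, LPS, SAg, BT, BF4T, BE3C, CASM3C, HDF3CGF, KF3CT, MyoF, Mphg). Compounds were added 1 h before stimulation and left for 24 h (MyoF 48 h; BT 72 h for soluble read-outs or 6 d for IgG). Biomarkers were read by ELISA, cytotoxicity by SRB, PBMC viability and proliferation by Alamar Blue. Each well value was divided by the mean of 8 DMSO control wells on the same plate and log10 transformed; duplicate blinded samples were tested at 4 concentrations.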

[2] = compound: FC(F)(F)C(F)(F)C(F)(F)C(F)(F)C(F)(F)C(F)(F)C(F)(F)I [1-Iodopentadecafluoroheptane]; conditions: in DMSO
Experimental: as §1

[3] = compound: O=P(O)(O)CCC(F)(F)C(F)(F)C(F)(F)C(F)(F)C(F)(F)C(F)(F)C(F)(F)C(F)(F)F [((Perfluorooctyl)ethyl)phosphonic acid]; conditions: 2200 nM; in DMSO
Experimental: as §1

[4] = compound: O=C(O)C(F)(F)C(F)(F)OC(F)(F)F [Perfluoro-3-methoxypropanoic acid]; conditions: 2200 nM; in DMSO
Experimental: as §1

[5] = compound: O=S(=O)(Cl)C(F)(F)C(F)(F)C(F)(F)C(F)(F)C(F)(F)C(F)(F)C(F)(F)C(F)(F)F [Perfluoro-1-octanesulfonyl chloride]; conditions: 2200 nM; in DMSO
Experimental: as §1

[6] = compound: O=C(O)C(F)(F)OC(F)(F)C(F)(F)OC(F)(F)C(=O)O [Perfluoro-3,6-dioxaoctane-1,8-dioic acid]; conditions: 2200 nM; in DMSO
Experimental: as §1

Perfluoroundecanoic acid = compound: O=C(O)C(F)(F)C(F)(F)C(F)(F)C(F)(F)C(F)(F)C(F)(F)C(F)(F)C(F)(F)C(F)(F)C(F)(F)F [Perfluoroundecanoic acid]; conditions: in DMSO
Experimental: as §1

[7] = compound: O=C(O)C(F)(F)C(F)(F)C(F)(F)C(F)(F)C(F)(F)C(F)(F)C(F)(F)C(F)F [9-H-Perfluorononanoic acid]; conditions: 2200 nM; in DMSO
Experimental: as §1

Perfluorobutanoic acid = compound: O=C(O)C(F)(F)C(F)(F)C(F)(F)F [Perfluorobutanoic acid]; conditions: 2200 nM; in DMSO
Experimental: as §1

[8] = compound: OCC(F)(F)C(F)(F)C(F)(F)C(F)(F)C(F)(F)C(F)(F)C(F)(F)C(F)(F)C(F)(F)C(F)(F)C(F)(F)F [11:1 Fluorotelomer alcohol]; conditions: in DMSO
Experimental: as §1

[9] = compound: O=C(O)C(F)(F)OC(F)(F)C(F)(F)OC(F)(F)C(F)(F)C(F)(F)C(F)(F)F [Perfluoro-3,6-dioxadecanoic acid]; conditions: 2200 nM; in DMSO
Experimental: as §1

[10] = compound: O=C(O)C=CC(F)(C(F)(F)F)C(F)(F)F [3-(Perfluoroisopropyl)-2-propenoic acid]; conditions: in DMSO
Experimental: as §1

[11] = compound: C=CC(=O)OCC(F)(F)C(F)(F)C(F)(F)C(F)(F)COC(=O)C=C [1H,1H,6H,6H-Perfluorohexane-1,6-diol diacrylate]; conditions: 2200 nM; in DMSO
Experimental: as §1

[12] = compound: FC(F)C(F)(F)COCC1CO1 [((2,2,3,3-Tetrafluoropropoxy)methyl)oxirane]; conditions: 2200 nM; in DMSO
Experimental: as §1

Perfluoropropanoic acid = compound: O=C(O)C(F)(F)C(F)(F)F [Perfluoropropanoic acid]; conditions: 2200 nM; in DMSO
Experimental: as §1

[13] = compound: FC(F)(F)C(F)(F)C(F)(F)C(F)(F)C(F)(F)C(F)(F)C(F)(F)CCI [1-Iodo-1H,1H,2H,2H-perfluorononane]; conditions: in DMSO
Experimental: as §1

[14] = compound: C=C(C)C(=O)OCC(F)(F)C(F)(F)C(F)(F)F [2,2,3,3,4,4,4-Heptafluorobutyl methacrylate]; conditions: 2200 nM; in DMSO
Experimental: as §1

Perfluorooctanamide = compound: NC(=O)C(F)(F)C(F)(F)C(F)(F)C(F)(F)C(F)(F)C(F)(F)C(F)(F)F [Perfluorooctanamide]; conditions: 2200 nM; in DMSO
Experimental: as §1

Test System | level (log10) [1] | level (log10) ([2]; 740 nM) | level (log10) ([2]; 2200 nM) | level (log10) ([2]; 6700 nM) | level (log10) ([2]; 20000 nM) | level (log10) [3] | level (log10) [4] | level (log10) [5] | level (log10) [6] | level (log10) (Perfluoroundecanoic acid; 740 nM) | level (log10) (Perfluoroundecanoic acid; 2200 nM) | level (log10) [7] | level (log10) (Perfluorobutanoic acid) | level (log10) ([8]; 370 nM) | level (log10) ([8]; 1100 nM) | level (log10) ([8]; 3300 nM) | level (log10) ([8]; 10000 nM) | level (log10) [9] | level (log10) ([10]; 2200 nM) | level (log10) ([10]; 6700 nM) | level (log10) ([10]; 20000 nM) | level (log10) ([10]; 60000 nM) | level (log10) [11] | level (log10) [12] | level (log10) (Perfluoropropanoic acid) | level (log10) ([13]; 740 nM) | level (log10) ([13]; 2200 nM) | level (log10) ([13]; 6700 nM) | level (log10) ([13]; 20000 nM) | level (log10) [14] | level (log10) (Perfluorooctanamide)
BT:B cell Proliferation | 0 ± 0.04 | -0.016 ± 0.0028 | 0.0135 ± 0.028 | -0.0045 ± 0.005 | 0.019 ± 0.0071 | 0.014 ± 0.0085 | 0.0085 ± 0.03 | 0.0015 ± 0.035 | -0.006 ± 0.0085 | -0.0245 ± 0.033 | 0.031 ± 0.025 | 0.03 ± 0.0099 | -0.0295 ± 0.005 | -0.0445 ± 0.074 | -0.103 ± 0.023 | -0.144 ± 0.026 | -0.44 ± 0.42 | -0.0105 ± 0.011 | 0.0095 ± 0.043 | 0.0085 ± 0.0021 | -0.011 ± 0.0014 | 0.012 ± 0.037 | -0.028 ± 0.018 | -0.004 ± 0.014 | 0.0145 ± 0.06 | 0.013 ± 0.014 | -0.017 ± 0.069 | 0.0135 ± 0.029 | 0.0045 ± 0.015 | -0.015 ± 0.03 | -0.0015 ± 0.025
lMphg:M-CSF | -0.007 ± 0.028 | 0.0235 ± 0.016 | 0.0065 ± 0.015 | -0.0015 ± 0.042 | 0.015 ± 0.0014 | -0.01 ± 0.024 | 0.01 ± 0.024 | -0.023 ± 0.018 | 0.012 ± 0.023 | 0.0145 ± 0.0035 | 0.0135 ± 0.025 | -0.006 ± 0.021 | 0.01 ± 0.017 | -0.0015 ± 0.018 | -0.0045 ± 0.005 | -0.0195 ± 0.0078 | -0.0735 ± 0.016 | -0.019 ± 0.03 | -0.009 ± 0.02 | -0.0105 ± 0.0064 | -0.021 ± 0.014 | -0.015 ± 0.025 | -0.021 ± 0.0042 | -0.0195 ± 0.0092 | -0.02 ± 0.0014 | -0.0115 ± 0.042 | -0.029 ± 0.035 | -0.023 ± 0.037 | -0.015 ± 0.0014 | -0.001 ± 0.061 | 0.02 ± 0.033
HDF3CGF:Collagen I | -0.003 ± 0.037 | 0.03 ± 0.03 | 0.0005 ± 0.0092 | 0.017 ± 0.033 | -0.005 ± 0.017 | 0.0165 ± 0.07 | 0.027 ± 0.13 | -0.0295 ± 0.018 | 0.009 ± 0.12 | 0.0235 ± 0.015 | 0.021 ± 0.054 | 0.0325 ± 0.14 | 0.0185 ± 0.032 | 0.3 ± 0.017 | 0.438 ± 0.0099 | 0.471 ± 0.03 | 0.394 ± 0.062 | -0.0035 ± 0.097 | 0.022 ± 0.078 | -0.0205 ± 0.043 | -0.0065 ± 0.023 | 0.0475 ± 0.035 | 0.051 ± 0.045 | 0.0255 ± 0.096 | 0.023 ± 0.05 | -0.02 ± 0.064 | -0.057 ± 0.033 | 0.0105 ± 0.042 | -0.011 ± 0.058 | -0.016 | 0.0275 ± 0.1
LPS:M-CSF | -0.0405 ± 0.13 | 0.013 ± 0.034 | 0.028 ± 0.061 | 0.023 ± 0.047 | 0.0155 ± 0.086 | -0.025 ± 0.0042 | -0.004 ± 0.035 | -0.0625 ± 0.077 | 0.011 ± 0.0042 | 0.014 ± 0.014 | 0.033 ± 0.035 | -0.0095 ± 0.061 | 0.0095 ± 0.013 | 0.01 ± 0.018 | -0.009 ± 0.018 | -0.054 ± 0.047 | -0.0825 ± 0.066 | 0.009 ± 0.045 | -0.003 ± 0.021 | -0.011 ± 0.041 | -0.0065 ± 0.0092 | 0.0035 ± 0.0035 | 0.0165 ± 0.021 | 0.0205 ± 0.012 | 0.034 ± 0.021 | 0.028 ± 0.018 | 0.003 ± 0.016 | -0.003 ± 0.028 | -0.0015 ± 0.093 | 0.0085 ± 0.037 | 0.0065 ± 0.049
